According to paper PMC7044199:
No constants are given. Whether binding was seen depends on the method and setting. Binding seen in cells or lysates may run through a third protein. Some entries that bind do so weakly or less than the wild type. For part of these data: Where a sequence is shown, tags or fusion partners need not be part of it.

Protein sequences, listed by entry. Tags and fused reporters are not part of them.
UniProt P19474: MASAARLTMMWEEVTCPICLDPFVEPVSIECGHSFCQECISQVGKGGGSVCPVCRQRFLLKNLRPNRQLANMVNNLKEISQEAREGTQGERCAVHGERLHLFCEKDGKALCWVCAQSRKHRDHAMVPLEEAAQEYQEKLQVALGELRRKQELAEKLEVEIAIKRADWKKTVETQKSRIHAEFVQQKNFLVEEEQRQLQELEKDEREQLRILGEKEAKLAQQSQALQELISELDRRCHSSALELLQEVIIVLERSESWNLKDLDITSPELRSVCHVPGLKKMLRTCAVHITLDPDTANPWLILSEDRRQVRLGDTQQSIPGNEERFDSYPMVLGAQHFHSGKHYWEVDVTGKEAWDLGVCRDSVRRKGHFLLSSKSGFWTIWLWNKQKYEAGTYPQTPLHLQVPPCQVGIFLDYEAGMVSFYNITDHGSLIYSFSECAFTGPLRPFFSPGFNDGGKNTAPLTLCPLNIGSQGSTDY

Legend:
[1] = target: T1, GST-SET7/9 (UniProt Q8WTS6); assay: pull-down; GST-SET7/9 or its deletion mutants with in vitro-transcribed and translated full-length TRIM21 (rabbit reticulocyte lysate); only the target purified
T1 sequence: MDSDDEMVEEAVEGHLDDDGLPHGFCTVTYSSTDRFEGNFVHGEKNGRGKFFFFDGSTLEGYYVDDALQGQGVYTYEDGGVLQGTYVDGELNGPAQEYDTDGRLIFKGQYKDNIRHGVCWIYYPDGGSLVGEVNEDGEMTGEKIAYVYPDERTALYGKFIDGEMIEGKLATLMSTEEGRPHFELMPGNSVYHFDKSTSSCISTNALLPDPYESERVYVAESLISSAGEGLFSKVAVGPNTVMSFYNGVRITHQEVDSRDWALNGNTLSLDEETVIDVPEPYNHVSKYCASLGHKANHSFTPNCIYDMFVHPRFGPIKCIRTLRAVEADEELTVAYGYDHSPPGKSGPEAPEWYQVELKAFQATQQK

[2] = target: T2, FLAG-SET7/9 (UniProt Q8WTS6); assay: co-IP; column-bound proteins of the anti-FLAG purification from MCF-7 cells expressing FLAG-SET7/9, western blot with antibodies against TRIM21
T2 sequence: T1 sequence

[3] = target: T3, SET7/9, endogenous (human (endogenous in MCF-7, T-47D, MDA-MB-231, MCF-10A)) (UniProt Q8WTS6); assay: co-IP; endogenous proteins in lysates of MCF-7, T-47D, MDA-MB-231 and MCF-10A cells; lysis buffer 50 mM Tris-HCl pH 8.0, 0.5% NP40, 150 mM NaCl, 1 mM EDTA, 0.5% sodium deoxycholate; 3 ug antibody overnight at 4 C, protein A/G Sepharose; IP with SET7/9 antibodies and the reciprocal IP with TRIM21 …
T3 sequence: T1 sequence

binding [1]	binding [2]	binding [3]	Substance
binds	–	–	in vitro-transcribed and translated full-length TRIM21 (from UniProt P19474 1-475) (enzyme)
–	binds	binds	Tripartite motif-containing protein 21 (TRIM21), endogenous (from UniProt P19474 1-475) (enzyme)
